Experimental data from the supplement of paper PMC7125110.
± gives the standard error. Many entries were measured with a wide error.

B1: glmS ribozyme (parent)
chain: AUAAAAGCGCCAGAACUACAGAAAUGUAGUUGACGAGGAGGAGGUUUAUCGAAUUUUCGGCGGAUGCCUCCAAA

Variants of: B1
Assay: self-cleavage kobs at 40 uM GlcN6P; higher = faster cleavage; RNA array
Details: with glucosamine-6-phosphate
In short: (§1)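 Tiles bearing barcoded ribozyme variants, transcribed in situ by E. coli RNA polymerase on sequenced MiSeq chips, were imaged over ~14 h at 37 °C using a hybridised Cy3 probe. Glucosamine-6-phosphate was supplied at 40 μM to 10 mM in HEPES/KCl/Mg(OAc)2 buffer. kobs came from one- or two-exponential decay fits to normalised per-tile medians, and weighted Michaelis–Menten fits then provided kcat and KM.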

Variant	self-cleavage kobs at 40 uM GlcN6P [s⁻¹]
C16A C68G	1.43e-05 ± 1.2e-05
A12U G37A G40C	3.31e-05 ± 1.7e-05
G7U C70A	0.000149 ± 8.8e-05
A12U A15U G29A	4.66e-05 ± 2.4e-05
A14U C70A	1.71e-05 ± 1.4e-05
A12C U55A U69C	1.61e-05 ± 1.5e-05
A14U G37A	2.98e-05 ± 1.8e-05
A12C A15G C50G U56G C67G	4.09e-05 ± 2.1e-05
C11A A12C U57G C67G	3.23e-05 ± 2.2e-05
A14U U45G	1.25e-05 ± 1.2e-05
G13A C16U C58G C67G	3.42e-05 ± 3e-05
G13U A53U	1.76e-05 ± 9.6e-06
G29C A53C	1.98e-05 ± 1.6e-05
C10A U46G C50U C68U	3.01e-05 ± 2.7e-05
G7U A48U C50A C67G	3.31e-05 ± 2.2e-05
C11U C68U	1.86e-05 ± 1.5e-05
C67A C71G	1.76e-05 ± 1.2e-05

Variant	self-cleavage kobs at 40 uM GlcN6P [s⁻¹]
C16U A53U C67G	2.61e-05 ± 1.6e-05
A15C A53U C71G	2.88e-05 ± 2.1e-05
U57A	< 1e-05
C10A A39G C61A C68A	5.23e-05 ± 2.8e-05
C11U U69C C70G	3.69e-05 ± 1.9e-05
A14U U47G U69A	2.68e-05 ± 2.1e-05
C11U A15U	2.65e-05 ± 1.4e-05
A15C G40U	1.89e-05 ± 1.1e-05
C16U C58U C68G	3.15e-05 ± 1.7e-05
G29A C50G U54A	3.17e-05 ± 2.4e-05
C16A A42G C68G C70U	3.8e-05 ± 2.2e-05
A15C U46G	4.41e-05 ± 2.4e-05
A14G C16A G29C A53G	3.44e-05 ± 1.9e-05
A15U G29A G32A	3.67e-05 ± 2e-05
C11G U30C G51U C61G U69A	2.34e-05 ± 2.3e-05
C16G C34U A42U C50G	3.06e-05 ± 2.3e-05

Variants of: B1
Assay: self-cleavage kobs at 160 uM GlcN6P; higher = faster cleavage; RNA array
Details: with glucosamine-6-phosphate
In short: as §1

Variant	self-cleavage kobs at 160 uM GlcN6P [s⁻¹]
C16A C68G	9.56e-05 ± 8.4e-05
U56A A64C	2.59e-05 ± 2.5e-05
U49G C67G	1.98e-05 ± 1.9e-05
C50A	< 1e-05
U47C C68G	2.22e-05 ± 2e-05
U47C C70A	2.19e-05 ± 1.3e-05
U65G C67U C68U	2.77e-05 ± 2.7e-05
C11G U30C G51U C61G U69A	5.89e-05 ± 3.3e-05

Variants of: B1
Assay: KM; higher = weaker cofactor use; RNA array
Details: with glucosamine-6-phosphate
In short: as §1

Variant	KM [µM]
U56A A64C	594 ± 550
G59U C71G	817 ± 71
G60A C70U	1620 ± 820
C58G G63A	582 ± 470
U49G C67G	1300 ± 660
U55C U57C	1420 ± 1200
C50A	579 ± 130
A53C U54A	2810 ± 1700
U56G C67U	1070 ± 700
U55C U65C	1500 ± 780
G59A C68U	446 ± 360
U57C U65G	631 ± 440
C61U C68U	97 ± 74
A64C C71G	75.1 ± 65
G60C G66A	756 ± 640
U54C A64C	3560 ± 1000
U54C A64G	1100 ± 570
U56A U65A	2730 ± 1500
U47G U55G	1110 ± 640
U56G U65C	6800 ± 1000

Variant	KM [µM]
U55A C71G	478 ± 320
C67A C71G	62.7 ± 45
U57A	3120 ± 170
U57C	3180 ± 76
U57A A64U	865 ± 550
U57C C67U	789 ± 530
U47C C68G	573 ± 80
C67U C71G	65 ± 47
C67U C71A	1030 ± 530
U49C C71A	362 ± 350
U47A G66U	1780 ± 480
U55C C70U	5960 ± 3000
U47C C70A	1300 ± 710
U46C U56G	1390 ± 310
A52G A53U	1900 ± 430
U65G C67U C68U	2360 ± 1900
U49A	442 ± 350
U47C A52C	3020 ± 290
U56C C67U	7870 ± 360

Reformatted bar-delimited: entries from further up.
Variant | KM [µM]
U56A U65A | 2730 ± 1500
U47G U55G | 1110 ± 640
U56G U65C | 6800 ± 1000
U55A C71G | 478 ± 320
C67A C71G | 62.7 ± 45
U57A | 3120 ± 170

Variants of: B1
Assay: self-cleavage kobs at 640 uM GlcN6P; higher = faster cleavage; RNA array
Details: with glucosamine-6-phosphate
In short: as §1

Variant	self-cleavage kobs at 640 uM GlcN6P [s⁻¹]
U56A A64C	2.05e-05 ± 1.6e-05
C10A U46G C50U C68U	4.95e-05 ± 2.8e-05
U49A	< 1e-05

Variants of: B1
Assay: self-cleavage kobs at 2500 uM GlcN6P; higher = faster cleavage; RNA array
Details: with glucosamine-6-phosphate
In short: as §1

Variant	self-cleavage kobs at 2500 uM GlcN6P [s⁻¹]
G7U C70A	2.82e-05 ± 1.8e-05
G59A C68U	1.35e-05 ± 1.2e-05
C10A U46G C50U C68U	0.00195 ± 0.0018

Variants of: B1
Assay: self-cleavage kobs at 10000 uM GlcN6P; higher = faster cleavage; RNA array
Details: with glucosamine-6-phosphate
In short: as §1

Variant	self-cleavage kobs at 10000 uM GlcN6P [s⁻¹]
G7U C70A	6.61e-05 ± 4.3e-05
G59A C68U	1.54e-05 ± 8.3e-06
G13A C16U C58G C67G	2.28e-05 ± 1.5e-05
C10A U46G C50U C68U	3.15e-05 ± 1.8e-05
C10A A39G C61A C68A	2.34e-05 ± 2.1e-05
C11U U69C C70G	1.97e-05 ± 1.9e-05
G29A C50G U54A	2.84e-05 ± 2e-05
C11G U30C G51U C61G U69A	2.51e-05 ± 1.6e-05
U47C A52C	3.09e-05 ± 1.9e-05
U56C C67U	2.11e-05 ± 1.1e-05
